## Library screen at single concentrations

The filed quantity is “Percent Effect” (%).
The record does not define 0% and 100%; most values in the screen are far below 50% and negative numbers occur (in some assays of this library far below -100).
Compounds were drawn at random from those tested, without regard to their results.

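Assay of Toxoplasma gondii numbers, read through their beta-galactosidase reporter with a colour substrate. Compounds at 50 µM. Higher reads as fewer parasites (inferred from which compounds were picked for retests). Of about 18,000 compounds tested this way, about 170 (0.94%) reached 50% or more in at least one test.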

Compound | effect
N#Cc1ccc2c(c1)CCCCC2=O | -1.008
CC(=O)Nc1ccccc1CN(C)CC(C)O (stereo unspecified) | 3.541
Cc1nonc1CC(=O)N(C)CC1CCCCO1 (stereo unspecified) | -8.43
NCc1ccc(-c2nc3cnccc3o2)cc1 | -11.14
CC(C)COCC(O)Cn1nnc(-c2ccco2)n1 (stereo unspecified) | -5.505
Cc1ccnc(NCCNC(=O)C2CCOCC2)c1 | 1.302
N#Cc1ccncc1 | 0.0775
Cc1ccc(C(=O)N(C)C2CCS(=O)(=O)C2)cc1 (stereo unspecified) | -14.08
NC(=O)Nc1cccc(CNS(=O)(=O)c2cccs2)c1 | -1.862
CN(CC1CC1)c1ccc(S(C)(=O)=O)cc1S(C)(=O)=O | 3.182
Cn1c(=O)n(C)c2cc(CNCCOCCO)ccc21 | -15.33
CCOC(=O)N(C)C1CCNCC1 | -5.761
Cc1ccc(NC(=O)CN2CCN(C)CC2)c(Br)c1 | -4.378
NCc1cccnc1N | 5.394
O=C(CCc1ccccc1)NC1CCNCC1 | -6.543
O=C(NCc1nc(C2CCCCC2)no1)C1CCOC1 (stereo unspecified) | 16.93
CC(=O)N1CCC(CNC(=O)Nc2ccc(C)s2)CC1 | -3.652
COC(=O)c1ccc2oc(=O)[nH]c2c1 | -0.8902
CCN1CCC(NC(=O)c2ccc3c(c2)OCO3)CC1 | -3.744
Cn1ccc(C(=O)N2CCCC2c2ccc(F)cc2)n1 (stereo unspecified) | 10.83
Cc1ncc(C(=O)NCc2ccnn2C)c(O)c1Br | 4.469
COCCNC(=O)[C@@H](N)Cc1ccccc1 | 1.222
Cc1c(Cl)cccc1OCC(=O)NC(C(N)=O)C(C)C (stereo unspecified) | 6.275
O=C(CSCc1ccco1)Nc1ccncc1 | 0.1309
O=C(CCc1ccccc1)N1CC(c2cccnc2)C1 | -2.473
COC(=O)NCC(=O)N(C)c1ccc2ccccc2c1 | 7.982
COC(=O)Cc1ccoc1 | 5.549
C=C(C)COCCNC1CCCSC1 (stereo unspecified) | -11.58
CN(CCCO)C(=O)c1ccc(Cl)cc1F | -1.161
COCCNC(=O)CN1CCCC(NS(C)(=O)=O)C1 (stereo unspecified) | -11.58
C1CN=C(NCCCOCC2CCCO2)NC1 (stereo unspecified) | 2.12
CC(C#N)OC(=O)c1ccccc1 (stereo unspecified) | -1.512
NC(=O)CC1CNC1 | -14.52
Cc1cc(C(=O)N[C@H]2CCCNC2)n(C)n1 | -3.12
CC(C(N)=O)S(=O)(=O)Cc1ccccc1C(F)(F)F (stereo unspecified) | -0.6946
NCC(=O)Nc1ccc2c(c1)CCC2 | -2.552
NCc1ccc(-c2cccnc2)o1 | -1.478
CC1(CNC(=O)c2cnccn2)CCOCC1 | -4.064
CCCC(N)CNS(=O)(=O)c1ccc(C)cc1F (stereo unspecified) | 25.34
CNC(=O)C1CCCCN1Cc1cc(OC)ccn1 (stereo unspecified) | 5.023
CC(C)Cc1nc(COCc2ncc[nH]2)no1 | 1.789
Cc1cc(C#N)ccc1CO | -0.9841
CCc1cc(C(=O)NCCc2nnc(C)s2)ccn1 | -4.743
CC(OCc1ccccc1)C(=O)NCc1c[nH]nn1 (stereo unspecified) | -6.94
CC(=O)N1c2ccccc2N(C)C(=O)C1(C)C | -0.1272
CNC(=O)CN(C)C(=O)C(C)OCc1ccccc1 (stereo unspecified) | -2.082

3 of the entries, repeated:

Compound,effect
CC(=O)N1CCC(CNC(=O)Nc2ccc(C)s2)CC1,-3.652
COCCNC(=O)[C@@H](N)Cc1ccccc1,1.222
Cc1ccc(C(=O)N(C)C2CCS(=O)(=O)C2)cc1 (stereo unspecified),-14.08

From ChEMBL document CHEMBL3988442, “University of Dundee, Small-Polar-MMV Screening Library” (2021).